Data taken from article PMC12501288.
No constants are given. Whether binding was seen depends on the method and setting. For some assays here: In cells and extracts the contact can be indirect. Some binding calls cover weakened binding; strength is not graded here.

By UniProt entry, the sequences of proteins in these tests, tags left out.
UniProt P01106: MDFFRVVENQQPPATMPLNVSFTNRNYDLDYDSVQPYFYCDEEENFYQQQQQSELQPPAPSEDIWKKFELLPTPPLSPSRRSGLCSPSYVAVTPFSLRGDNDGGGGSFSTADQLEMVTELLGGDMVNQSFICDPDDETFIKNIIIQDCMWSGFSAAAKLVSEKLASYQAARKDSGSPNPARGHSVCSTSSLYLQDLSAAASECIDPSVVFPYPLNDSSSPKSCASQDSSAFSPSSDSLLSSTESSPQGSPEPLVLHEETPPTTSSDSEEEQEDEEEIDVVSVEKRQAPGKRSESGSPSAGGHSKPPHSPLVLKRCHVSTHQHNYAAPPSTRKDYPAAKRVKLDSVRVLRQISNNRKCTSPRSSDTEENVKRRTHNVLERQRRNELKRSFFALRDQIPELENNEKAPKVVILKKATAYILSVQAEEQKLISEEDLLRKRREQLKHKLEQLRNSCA
UniProt P01108: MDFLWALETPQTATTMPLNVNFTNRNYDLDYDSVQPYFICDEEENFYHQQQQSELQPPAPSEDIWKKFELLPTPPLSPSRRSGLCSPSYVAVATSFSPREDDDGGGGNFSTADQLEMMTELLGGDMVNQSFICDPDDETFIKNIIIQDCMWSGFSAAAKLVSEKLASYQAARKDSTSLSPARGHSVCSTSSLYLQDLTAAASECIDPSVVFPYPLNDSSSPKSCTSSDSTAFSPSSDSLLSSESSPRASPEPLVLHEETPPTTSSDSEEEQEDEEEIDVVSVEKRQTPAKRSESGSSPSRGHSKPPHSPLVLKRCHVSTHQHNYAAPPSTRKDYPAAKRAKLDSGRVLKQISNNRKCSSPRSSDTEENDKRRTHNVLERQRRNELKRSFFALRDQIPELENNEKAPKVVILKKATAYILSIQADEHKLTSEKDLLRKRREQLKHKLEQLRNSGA
UniProt Q969H0: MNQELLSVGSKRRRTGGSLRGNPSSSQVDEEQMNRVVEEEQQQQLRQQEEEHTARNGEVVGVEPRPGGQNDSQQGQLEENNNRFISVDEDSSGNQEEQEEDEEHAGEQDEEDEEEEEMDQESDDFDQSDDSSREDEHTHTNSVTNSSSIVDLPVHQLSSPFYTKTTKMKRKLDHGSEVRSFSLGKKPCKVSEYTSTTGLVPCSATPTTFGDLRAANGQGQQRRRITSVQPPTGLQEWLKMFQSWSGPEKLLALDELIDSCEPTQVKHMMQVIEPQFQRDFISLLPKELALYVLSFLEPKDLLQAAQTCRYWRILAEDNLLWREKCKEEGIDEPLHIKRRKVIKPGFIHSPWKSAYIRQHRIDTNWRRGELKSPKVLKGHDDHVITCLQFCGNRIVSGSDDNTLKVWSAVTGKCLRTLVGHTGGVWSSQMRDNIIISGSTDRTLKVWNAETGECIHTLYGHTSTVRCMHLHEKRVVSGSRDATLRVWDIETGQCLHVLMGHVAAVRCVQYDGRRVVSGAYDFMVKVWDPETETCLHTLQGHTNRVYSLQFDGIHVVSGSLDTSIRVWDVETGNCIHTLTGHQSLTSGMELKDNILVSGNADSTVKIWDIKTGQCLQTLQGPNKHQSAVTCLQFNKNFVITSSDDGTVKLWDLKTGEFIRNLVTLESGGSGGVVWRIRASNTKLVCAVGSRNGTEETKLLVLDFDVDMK
UniProt Q13950: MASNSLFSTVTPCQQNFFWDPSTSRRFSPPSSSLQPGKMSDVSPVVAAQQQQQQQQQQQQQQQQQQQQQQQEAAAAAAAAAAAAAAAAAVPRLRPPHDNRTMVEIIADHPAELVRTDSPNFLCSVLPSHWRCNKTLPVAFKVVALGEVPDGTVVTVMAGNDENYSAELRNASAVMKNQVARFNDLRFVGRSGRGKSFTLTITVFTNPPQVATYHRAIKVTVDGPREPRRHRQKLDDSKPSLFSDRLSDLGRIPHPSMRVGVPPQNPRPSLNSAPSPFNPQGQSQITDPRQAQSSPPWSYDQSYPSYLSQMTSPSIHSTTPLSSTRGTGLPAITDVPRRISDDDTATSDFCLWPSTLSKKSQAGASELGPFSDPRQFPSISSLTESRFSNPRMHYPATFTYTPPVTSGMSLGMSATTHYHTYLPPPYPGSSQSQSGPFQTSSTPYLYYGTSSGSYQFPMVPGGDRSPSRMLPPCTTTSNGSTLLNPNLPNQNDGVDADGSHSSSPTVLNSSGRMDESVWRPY
UniProt Q08775: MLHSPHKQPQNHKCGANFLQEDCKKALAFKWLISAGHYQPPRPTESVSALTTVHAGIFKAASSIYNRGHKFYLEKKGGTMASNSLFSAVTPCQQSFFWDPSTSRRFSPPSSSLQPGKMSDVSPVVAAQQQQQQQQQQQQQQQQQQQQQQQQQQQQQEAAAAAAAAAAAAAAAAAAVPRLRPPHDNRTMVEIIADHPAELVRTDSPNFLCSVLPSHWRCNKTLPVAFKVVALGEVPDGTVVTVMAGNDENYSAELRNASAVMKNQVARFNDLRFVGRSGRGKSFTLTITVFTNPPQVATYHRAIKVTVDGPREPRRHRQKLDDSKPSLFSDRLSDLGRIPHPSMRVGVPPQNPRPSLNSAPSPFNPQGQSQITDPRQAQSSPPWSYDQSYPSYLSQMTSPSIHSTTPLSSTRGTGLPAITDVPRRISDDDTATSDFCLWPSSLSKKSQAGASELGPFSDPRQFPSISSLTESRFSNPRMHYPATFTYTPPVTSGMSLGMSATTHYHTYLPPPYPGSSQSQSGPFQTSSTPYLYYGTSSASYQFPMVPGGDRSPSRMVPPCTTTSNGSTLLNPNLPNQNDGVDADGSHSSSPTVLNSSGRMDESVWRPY

Legend:
[1] = biological target: HA-tagged full-length c-Myc (not stated (human or mouse cDNA cloned)) (UniProt P01106); assay: co-IP; 293T cells co-transfected with HA-tagged c-Myc and a gradient dose of Flag-tagged RUNX2 or vector control; RUNX2 and FBXW7 found with c-Myc detected by immunoblot
[2] = biological target: HA-tagged full-length c-Myc (not stated (human or mouse cDNA cloned)) (UniProt P01106); assay: co-IP; 293T cells co-transfected with Flag-tagged RUNX2 (full length or deletion mutants) and HA-tagged c-Myc (full length or deletion mutants); lysed in IP buffer, antibody overnight at 4 °C, protein A/G beads, immunoblot
[3] = biological target: endogenous c-Myc of 4T1 cells (mouse (endogenous in 4T1)) (UniProt P01108); assay: co-IP; endogenous RUNX2 and c-Myc in MDA-MB-231 and 4T1 cells; IP buffer, antibody overnight at 4 °C, protein A/G beads, immunoblot
[4] = biological target: endogenous c-Myc of MDA-MB-231 cells (human (endogenous in MDA-MB-231)) (UniProt P01106); assay: as above
His-fused c-Myc protein = His-fused c-Myc protein (UniProt P01106); assay: pull-down; His pull-down: 2 μg His-fused c-Myc, Flag-fused RUNX2 and Ni-NTA beads in 50 μL IP buffer with protease inhibitor cocktail, 4 °C, 6 h; Coomassie staining and immunoblot; both purified

## F-box/WD repeat-containing protein 7 (FBXW7) of 293T cells (from UniProt Q969H0 1-707)
[1]
  binding: binds

## Flag-tagged full-length RUNX2 (Runt-related transcription factor 2) (from UniProt Q13950 1-521)
[2]
  binding: binds

## endogenous RUNX2 of 4T1 cells (from UniProt Q08775 1-607)
[3]
  binding: binds

## endogenous RUNX2 of MDA-MB-231 cells (from UniProt Q13950 1-521)
[4]
  binding: binds

## recombinant Flag-fused RUNX2 protein (from UniProt Q13950 1-521)
His-fused c-Myc protein
  binding: binds
